Data on one molecule can be found in article PMC3866170.

Sequences of proteins named here, by UniProt entry; tags and fusion partners are left off. A change or cut given only in a name is not applied to a line headed by its entry.
UniProt Q925J9: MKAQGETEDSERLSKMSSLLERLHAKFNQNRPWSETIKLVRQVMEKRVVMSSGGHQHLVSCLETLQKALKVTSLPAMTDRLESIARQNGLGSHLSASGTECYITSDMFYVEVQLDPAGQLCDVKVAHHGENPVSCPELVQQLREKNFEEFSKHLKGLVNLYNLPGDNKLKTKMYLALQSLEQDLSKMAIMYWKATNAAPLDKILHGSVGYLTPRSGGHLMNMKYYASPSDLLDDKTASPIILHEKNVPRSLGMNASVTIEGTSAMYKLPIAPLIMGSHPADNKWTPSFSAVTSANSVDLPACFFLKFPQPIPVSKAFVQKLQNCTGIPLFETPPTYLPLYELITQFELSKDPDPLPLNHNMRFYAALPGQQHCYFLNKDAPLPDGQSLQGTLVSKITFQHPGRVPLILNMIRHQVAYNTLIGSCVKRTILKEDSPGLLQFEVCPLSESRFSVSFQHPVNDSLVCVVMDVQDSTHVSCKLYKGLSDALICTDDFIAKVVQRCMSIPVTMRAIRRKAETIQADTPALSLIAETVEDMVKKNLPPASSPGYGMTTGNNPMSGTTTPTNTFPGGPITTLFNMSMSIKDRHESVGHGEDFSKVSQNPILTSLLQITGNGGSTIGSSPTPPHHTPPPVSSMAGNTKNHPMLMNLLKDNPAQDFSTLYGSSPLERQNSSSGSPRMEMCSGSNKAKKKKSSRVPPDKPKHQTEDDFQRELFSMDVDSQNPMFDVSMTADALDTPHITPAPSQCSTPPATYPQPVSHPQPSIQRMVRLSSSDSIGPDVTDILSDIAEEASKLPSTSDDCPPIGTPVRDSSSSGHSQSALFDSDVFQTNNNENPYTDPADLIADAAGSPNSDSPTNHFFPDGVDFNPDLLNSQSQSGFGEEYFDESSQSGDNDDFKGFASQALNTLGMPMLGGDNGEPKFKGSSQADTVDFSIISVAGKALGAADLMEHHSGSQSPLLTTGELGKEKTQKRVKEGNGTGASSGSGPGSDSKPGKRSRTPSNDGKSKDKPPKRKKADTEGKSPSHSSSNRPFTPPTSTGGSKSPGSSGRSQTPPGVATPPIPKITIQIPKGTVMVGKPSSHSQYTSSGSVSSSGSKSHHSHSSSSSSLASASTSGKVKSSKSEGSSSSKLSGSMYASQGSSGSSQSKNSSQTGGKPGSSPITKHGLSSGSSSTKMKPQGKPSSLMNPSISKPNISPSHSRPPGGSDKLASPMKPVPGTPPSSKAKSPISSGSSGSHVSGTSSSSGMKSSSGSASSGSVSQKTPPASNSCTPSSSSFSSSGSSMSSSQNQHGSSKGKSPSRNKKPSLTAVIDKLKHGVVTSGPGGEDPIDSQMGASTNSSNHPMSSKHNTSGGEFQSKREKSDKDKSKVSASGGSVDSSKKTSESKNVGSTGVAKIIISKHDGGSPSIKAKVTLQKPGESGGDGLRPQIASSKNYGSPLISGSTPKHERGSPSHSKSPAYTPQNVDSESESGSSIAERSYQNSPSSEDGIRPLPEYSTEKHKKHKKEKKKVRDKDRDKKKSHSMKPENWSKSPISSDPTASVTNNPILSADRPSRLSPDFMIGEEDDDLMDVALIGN

In this assay the target is GST-Med1-C (1371-1560), unmodified (UniProt Q925J9). Nature of the assay: pull-down; GST fusion (unmodified or phosphorylated by purified ERK2) as bait, 35S labeled in vitro translated prey, incubated 2 h at 4°C, glutathione sepharose beads, SDS-PAGE and autoradiography; only the target purified.

No constants are given. Whether binding was seen depends on the method and setting. In cells and extracts the contact can be indirect. Binding can be weak; no strength is given.

B1: 35S labeled in vitro translated PIMT-N (1-334) (domain or fragment, UniProt Q96RS0 1-334)
chain: MCCEKWSRVAEMFLFIEEREDCKILCLCSRAFVEDRKLYNLGLKGYYIRDSGNNSGDQATEEEEGGYSCGTAESHDSKGIGLDESELDSEAELMRSMGLPLQFGRITAHKDFEVSMNTRNKVKIKKKKHQKKYLDEIVQESWRKEYEEDDILASDDPSSIEQYENTRTYELQSKKDTETENPPVENTLSPKLEITEKWEKYWNEYGGGLLWQSWQEKHPGQALSSEPWNFPDTKEEWEQHYSQLYWYYLEQFQYWEAQGWTFDASQSCDTDTYTSKTEADDKNDEKCMKVDLVSFPSSPIMVDNDSSGTSDKDHSEILDGISNIKLNSEEVTQS
modifications: 35S labeled
For the molecule B1, the binding entry is listed as “binds”.
